Compound in this assay: CC1Cc2ccccc2N1C(=O)C1CCCN(C1)C(=O)CCl (mixture of isomers) [TRIM25 ligand 11 (diastereomer mixture)]
Nature of the assay: probe-labelled cysteine peptide fold change vs DMSO (competition) (log2 fold change); higher = less target engagement (more negative = stronger competition). The settings on record: THP-1, incubation time: 4 h.

Chains of the proteins cited; added tags and fusions are not shown. Lines headed by an entry give the natural chain unless they say otherwise; changes in a name come on top.
UniProt P27708: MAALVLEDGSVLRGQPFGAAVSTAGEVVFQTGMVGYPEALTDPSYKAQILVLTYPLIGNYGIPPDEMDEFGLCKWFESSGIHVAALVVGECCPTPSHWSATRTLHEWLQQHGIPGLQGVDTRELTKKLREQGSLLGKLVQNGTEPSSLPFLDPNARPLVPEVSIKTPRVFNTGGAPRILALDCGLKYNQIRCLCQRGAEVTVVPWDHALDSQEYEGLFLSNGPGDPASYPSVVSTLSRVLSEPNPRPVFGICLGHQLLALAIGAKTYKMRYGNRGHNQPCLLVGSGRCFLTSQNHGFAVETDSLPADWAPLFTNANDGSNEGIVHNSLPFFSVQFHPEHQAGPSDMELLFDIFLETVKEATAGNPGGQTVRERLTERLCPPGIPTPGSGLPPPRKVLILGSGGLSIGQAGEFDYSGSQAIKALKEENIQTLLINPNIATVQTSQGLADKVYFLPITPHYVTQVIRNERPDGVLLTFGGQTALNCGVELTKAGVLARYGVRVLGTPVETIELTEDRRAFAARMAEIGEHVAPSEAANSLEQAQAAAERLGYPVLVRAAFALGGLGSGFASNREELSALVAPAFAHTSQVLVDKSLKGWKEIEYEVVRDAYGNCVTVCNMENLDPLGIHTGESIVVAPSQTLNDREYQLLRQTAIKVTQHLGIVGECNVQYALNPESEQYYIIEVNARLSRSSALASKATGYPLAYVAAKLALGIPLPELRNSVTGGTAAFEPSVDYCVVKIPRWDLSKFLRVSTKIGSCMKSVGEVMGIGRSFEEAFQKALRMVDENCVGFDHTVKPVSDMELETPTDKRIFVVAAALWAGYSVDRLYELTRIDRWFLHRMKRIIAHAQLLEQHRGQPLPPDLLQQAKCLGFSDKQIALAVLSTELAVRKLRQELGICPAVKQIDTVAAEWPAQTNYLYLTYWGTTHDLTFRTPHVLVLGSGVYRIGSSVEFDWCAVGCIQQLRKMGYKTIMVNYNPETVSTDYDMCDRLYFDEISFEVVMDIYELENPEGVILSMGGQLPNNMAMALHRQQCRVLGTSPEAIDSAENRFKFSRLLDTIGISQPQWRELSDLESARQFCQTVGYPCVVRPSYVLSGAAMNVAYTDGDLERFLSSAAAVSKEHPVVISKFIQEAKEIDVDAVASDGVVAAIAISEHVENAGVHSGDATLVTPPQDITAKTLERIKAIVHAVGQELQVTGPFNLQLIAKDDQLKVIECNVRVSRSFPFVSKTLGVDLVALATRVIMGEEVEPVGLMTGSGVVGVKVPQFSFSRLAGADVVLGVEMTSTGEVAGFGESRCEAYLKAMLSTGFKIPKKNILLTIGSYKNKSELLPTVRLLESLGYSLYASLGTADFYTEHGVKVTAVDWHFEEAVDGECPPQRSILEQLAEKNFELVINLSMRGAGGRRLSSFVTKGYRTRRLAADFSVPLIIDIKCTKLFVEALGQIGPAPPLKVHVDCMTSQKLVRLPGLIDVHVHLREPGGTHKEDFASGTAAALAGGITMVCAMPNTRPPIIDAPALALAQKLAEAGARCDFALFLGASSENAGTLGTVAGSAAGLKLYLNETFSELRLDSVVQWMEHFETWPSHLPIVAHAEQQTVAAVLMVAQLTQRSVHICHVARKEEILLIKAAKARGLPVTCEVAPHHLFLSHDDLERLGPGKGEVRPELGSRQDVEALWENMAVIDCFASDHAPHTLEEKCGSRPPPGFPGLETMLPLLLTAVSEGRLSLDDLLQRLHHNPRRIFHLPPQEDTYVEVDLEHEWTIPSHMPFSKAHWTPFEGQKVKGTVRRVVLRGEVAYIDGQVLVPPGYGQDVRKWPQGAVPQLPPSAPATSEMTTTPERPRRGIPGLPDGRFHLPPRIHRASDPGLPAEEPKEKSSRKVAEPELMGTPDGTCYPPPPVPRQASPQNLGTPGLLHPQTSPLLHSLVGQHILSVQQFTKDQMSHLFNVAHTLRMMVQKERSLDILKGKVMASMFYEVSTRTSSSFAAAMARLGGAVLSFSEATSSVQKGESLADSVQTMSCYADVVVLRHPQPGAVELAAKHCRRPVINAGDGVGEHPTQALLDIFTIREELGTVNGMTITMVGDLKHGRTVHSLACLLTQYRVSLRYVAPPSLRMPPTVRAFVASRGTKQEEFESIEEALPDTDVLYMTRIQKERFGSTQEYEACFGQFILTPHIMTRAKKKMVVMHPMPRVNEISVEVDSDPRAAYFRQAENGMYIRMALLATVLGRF
UniProt Q9Y6J0: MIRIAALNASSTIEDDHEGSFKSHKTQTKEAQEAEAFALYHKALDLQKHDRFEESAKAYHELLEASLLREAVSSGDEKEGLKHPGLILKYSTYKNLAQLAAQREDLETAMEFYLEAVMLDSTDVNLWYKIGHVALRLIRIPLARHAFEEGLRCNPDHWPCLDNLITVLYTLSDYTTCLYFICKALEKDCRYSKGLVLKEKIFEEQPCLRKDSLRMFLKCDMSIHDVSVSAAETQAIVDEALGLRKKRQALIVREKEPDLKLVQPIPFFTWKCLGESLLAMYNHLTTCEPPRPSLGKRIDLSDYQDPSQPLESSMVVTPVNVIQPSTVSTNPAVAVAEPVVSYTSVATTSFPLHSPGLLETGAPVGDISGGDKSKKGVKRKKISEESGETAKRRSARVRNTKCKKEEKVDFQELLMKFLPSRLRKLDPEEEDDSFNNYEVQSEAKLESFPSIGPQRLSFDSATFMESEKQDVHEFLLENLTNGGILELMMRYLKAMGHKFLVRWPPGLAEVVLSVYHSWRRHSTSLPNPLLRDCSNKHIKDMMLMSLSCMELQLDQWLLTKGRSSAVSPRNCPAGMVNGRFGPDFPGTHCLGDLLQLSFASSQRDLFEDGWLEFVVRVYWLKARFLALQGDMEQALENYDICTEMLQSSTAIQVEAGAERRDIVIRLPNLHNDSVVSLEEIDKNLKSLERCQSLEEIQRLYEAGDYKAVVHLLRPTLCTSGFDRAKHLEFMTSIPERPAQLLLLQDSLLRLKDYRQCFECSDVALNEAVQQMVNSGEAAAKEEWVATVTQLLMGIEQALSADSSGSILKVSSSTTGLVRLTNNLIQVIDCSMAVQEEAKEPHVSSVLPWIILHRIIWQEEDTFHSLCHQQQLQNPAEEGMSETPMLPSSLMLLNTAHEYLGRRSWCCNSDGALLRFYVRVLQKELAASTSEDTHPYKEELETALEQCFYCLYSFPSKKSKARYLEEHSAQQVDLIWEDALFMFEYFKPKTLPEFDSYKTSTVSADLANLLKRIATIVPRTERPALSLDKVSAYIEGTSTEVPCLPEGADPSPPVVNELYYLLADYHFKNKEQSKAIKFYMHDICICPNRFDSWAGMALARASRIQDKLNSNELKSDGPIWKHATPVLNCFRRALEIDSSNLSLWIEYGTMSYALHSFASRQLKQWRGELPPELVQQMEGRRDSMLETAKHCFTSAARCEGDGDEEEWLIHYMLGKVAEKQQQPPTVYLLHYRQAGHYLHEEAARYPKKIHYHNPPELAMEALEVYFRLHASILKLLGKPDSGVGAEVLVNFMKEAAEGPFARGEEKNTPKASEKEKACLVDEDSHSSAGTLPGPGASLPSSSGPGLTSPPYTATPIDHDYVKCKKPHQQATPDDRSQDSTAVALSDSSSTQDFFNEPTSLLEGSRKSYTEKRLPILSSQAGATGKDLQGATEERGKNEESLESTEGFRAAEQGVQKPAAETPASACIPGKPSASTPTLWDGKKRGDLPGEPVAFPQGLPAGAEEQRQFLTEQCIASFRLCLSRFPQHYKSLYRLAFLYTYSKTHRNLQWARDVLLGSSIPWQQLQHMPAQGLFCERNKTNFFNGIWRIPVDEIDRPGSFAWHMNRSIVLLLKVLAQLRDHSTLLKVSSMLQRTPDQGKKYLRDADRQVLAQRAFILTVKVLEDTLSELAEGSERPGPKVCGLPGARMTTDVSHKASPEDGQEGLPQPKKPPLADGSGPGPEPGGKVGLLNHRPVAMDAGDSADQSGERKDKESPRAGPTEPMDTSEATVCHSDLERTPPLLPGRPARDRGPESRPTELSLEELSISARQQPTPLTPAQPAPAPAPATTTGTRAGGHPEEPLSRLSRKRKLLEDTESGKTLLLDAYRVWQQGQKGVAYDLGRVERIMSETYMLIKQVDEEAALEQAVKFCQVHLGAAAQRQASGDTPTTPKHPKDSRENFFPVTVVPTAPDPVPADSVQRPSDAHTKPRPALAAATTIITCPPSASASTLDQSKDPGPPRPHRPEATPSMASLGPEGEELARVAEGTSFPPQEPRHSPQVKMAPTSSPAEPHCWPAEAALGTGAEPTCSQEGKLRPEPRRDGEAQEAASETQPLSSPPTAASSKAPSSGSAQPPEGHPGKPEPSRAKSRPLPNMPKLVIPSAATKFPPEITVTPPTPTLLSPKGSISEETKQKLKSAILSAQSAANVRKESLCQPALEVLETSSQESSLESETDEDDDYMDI
UniProt P41223: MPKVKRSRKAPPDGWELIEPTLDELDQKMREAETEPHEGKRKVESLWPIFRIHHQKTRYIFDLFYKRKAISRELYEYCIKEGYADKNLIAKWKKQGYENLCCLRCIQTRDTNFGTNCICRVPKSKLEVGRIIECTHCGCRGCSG
UniProt Q6RI45, whole entry, looked up: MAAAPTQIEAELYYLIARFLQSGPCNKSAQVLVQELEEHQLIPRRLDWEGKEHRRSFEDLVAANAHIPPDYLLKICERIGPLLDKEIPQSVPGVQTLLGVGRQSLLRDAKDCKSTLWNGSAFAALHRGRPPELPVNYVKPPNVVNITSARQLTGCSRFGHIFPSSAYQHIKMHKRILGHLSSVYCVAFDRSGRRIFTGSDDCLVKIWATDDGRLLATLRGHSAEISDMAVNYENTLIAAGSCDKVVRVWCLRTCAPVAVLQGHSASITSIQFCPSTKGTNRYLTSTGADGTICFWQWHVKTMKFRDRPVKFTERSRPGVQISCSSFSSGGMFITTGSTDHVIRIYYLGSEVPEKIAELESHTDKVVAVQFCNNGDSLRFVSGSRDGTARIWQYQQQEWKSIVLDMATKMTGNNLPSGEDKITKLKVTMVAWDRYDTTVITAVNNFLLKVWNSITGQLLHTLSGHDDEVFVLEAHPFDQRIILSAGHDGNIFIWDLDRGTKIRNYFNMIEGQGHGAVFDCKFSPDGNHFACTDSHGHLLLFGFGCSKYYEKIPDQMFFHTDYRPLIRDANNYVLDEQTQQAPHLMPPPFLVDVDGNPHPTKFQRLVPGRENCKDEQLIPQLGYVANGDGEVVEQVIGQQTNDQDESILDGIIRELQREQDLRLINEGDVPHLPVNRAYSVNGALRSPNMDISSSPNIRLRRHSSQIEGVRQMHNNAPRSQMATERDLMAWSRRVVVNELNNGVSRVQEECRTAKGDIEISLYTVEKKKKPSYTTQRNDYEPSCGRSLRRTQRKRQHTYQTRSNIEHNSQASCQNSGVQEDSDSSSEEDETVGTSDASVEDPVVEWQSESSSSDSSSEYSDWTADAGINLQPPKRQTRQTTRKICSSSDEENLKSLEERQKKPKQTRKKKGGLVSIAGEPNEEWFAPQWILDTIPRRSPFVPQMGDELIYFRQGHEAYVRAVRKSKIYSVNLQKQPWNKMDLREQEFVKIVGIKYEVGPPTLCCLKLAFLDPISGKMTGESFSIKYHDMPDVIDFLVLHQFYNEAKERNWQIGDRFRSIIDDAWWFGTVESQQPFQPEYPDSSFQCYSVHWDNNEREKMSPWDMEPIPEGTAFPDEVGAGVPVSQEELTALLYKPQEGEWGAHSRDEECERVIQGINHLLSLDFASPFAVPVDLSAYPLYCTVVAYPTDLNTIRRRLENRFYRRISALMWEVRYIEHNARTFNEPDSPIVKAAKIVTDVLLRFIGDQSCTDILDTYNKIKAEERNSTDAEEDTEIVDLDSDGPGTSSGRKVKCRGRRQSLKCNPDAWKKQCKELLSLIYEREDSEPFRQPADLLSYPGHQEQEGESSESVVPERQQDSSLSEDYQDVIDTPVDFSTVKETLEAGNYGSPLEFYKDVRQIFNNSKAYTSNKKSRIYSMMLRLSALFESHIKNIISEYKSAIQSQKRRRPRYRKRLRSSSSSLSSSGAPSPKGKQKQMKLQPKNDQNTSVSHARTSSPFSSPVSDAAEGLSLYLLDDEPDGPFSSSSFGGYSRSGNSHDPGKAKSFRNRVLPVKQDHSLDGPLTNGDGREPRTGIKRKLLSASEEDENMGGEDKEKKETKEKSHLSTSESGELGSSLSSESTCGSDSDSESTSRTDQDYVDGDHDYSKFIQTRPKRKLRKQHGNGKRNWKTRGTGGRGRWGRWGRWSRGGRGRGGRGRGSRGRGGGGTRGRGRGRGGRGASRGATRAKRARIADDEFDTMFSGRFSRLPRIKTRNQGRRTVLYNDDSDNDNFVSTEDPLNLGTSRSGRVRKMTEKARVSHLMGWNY

The source of these data is the supplement of paper PMC12067093, “Discovery and optimisation of a covalent ligand for TRIM25 and its application to targeted protein ubiquitination” (Chemical Science, 2025).

Some of the results follow.
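Note: competitive chemoproteomic profiling in live THP-1 cells with an iodoacetamide desthiobiotin (IA-DTB) probe, comparing probe-labelled peptide intensities in compound-treated cells against DMSO-treated controls.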

Regarding “BTK_Q06187_165_NAMGCQILENR (UniProt Q06187)”, the “probe-labelled cysteine peptide fold change” value (10 µM) was -0.126 and the “probe-labelled cysteine peptide fold change” value (50 µM) is -0.24.
For “BYSL_Q13895_381_ELPVLWHQCLLTLVQR (UniProt Q13895)”, the “probe-labelled cysteine peptide fold change” value is 0.0997 (10 µM) and 0.0773 (50 µM).
Regarding “CAMK2D_Q13557_116_EYYSEADASHCIQQILESVNHCHLNGIVHR (UniProt Q13557)”, the “probe-labelled cysteine peptide fold change” value (10 µM) is -0.0701 and the “probe-labelled cysteine peptide fold change” value (50 µM) is -0.0602.
Take “CAMK1D_Q8IU85_270_YTCEQAAR (UniProt Q8IU85)”: the “probe-labelled cysteine peptide fold change” value is -0.0281 (10 µM) and 0.0147 (50 µM).
The like results for “C3_P01024_1458_VSHSEDDCLAFK (UniProt P01024)” were, in that order, 0.259 and 0.228.
Consider “CAD_P27708_1636_GLPVTCEVAPHHLFLSHDDLER (UniProt P27708)”, for which the “probe-labelled cysteine peptide fold change” value by setting is: (10 µM) -0.112; (50 µM) -0.0632.
Regarding “BTG3_Q14201_238_NKPYRPIPVTWVPPPGMHCDR (UniProt Q14201)”, the “probe-labelled cysteine peptide fold change” value reads like this: (10 µM) -0.313; (50 µM) -0.403.
For “BRAT1_Q6PJG6_308_LEHCPQALR (UniProt Q6PJG6)”, in that order: -0.0237 and 0.00856.
As to “CABIN1_Q9Y6J0_1197_CEGDGDEEEWLIHYMLGK (UniProt Q9Y6J0)”, the “probe-labelled cysteine peptide fold change” value by setting is: (10 µM) -0.0356; (50 µM) -0.143.
“CAMK2D_Q13557_290_QETVDCLK (UniProt Q13557)”: the “probe-labelled cysteine peptide fold change” value is -0.0938 (10 µM) and 0.00941 (50 µM).
“BRIP1_Q9BX63_332_ISDQHTLQTFQGMCK (UniProt Q9BX63)”: the “probe-labelled cysteine peptide fold change” value is, setting by setting: (10 µM) 0.111; (50 µM) 0.0335.
Regarding “CAMSAP1_Q5T5Y3_47_IAANLQWICAK (UniProt Q5T5Y3)”, the “probe-labelled cysteine peptide fold change” value is 0.0318 (10 µM) and -0.0352 (50 µM).
For “C8orf82_Q6P1X6_107_CEDRPVVFTHLLTADHGPPR (UniProt Q6P1X6)”, in that order: -0.0558 and -0.0561.
As for “BTAF1_O14981_1522_IIQDYYCTLSPLQVQLYEDFAK (UniProt O14981)”, the “probe-labelled cysteine peptide fold change” value runs as follows: (10 µM) -0.0687; (50 µM) -0.00295.
For “CABIN1_Q9Y6J0_589_FGPDFPGTHCLGDLLQLSFASSQR (UniProt Q9Y6J0)”, the “probe-labelled cysteine peptide fold change” value is 0.0411 (10 µM) and -0.0885 (50 µM).
As to “BUD31_P41223_101_KQGYENLCCLR (UniProt P41223)”, the “probe-labelled cysteine peptide fold change” value runs as follows: (10 µM) -0.06; (50 µM) 0.0769.
In the case of “CALCOCO2_Q13137_321_LSENEIICNALQR (UniProt Q13137)”, the “probe-labelled cysteine peptide fold change” value by setting is: (10 µM) -0.161; (50 µM) -0.076.
Regarding CAD_P27708_1296_CEAYLK (UniProt P27708), for the setting “50 µM”, the “probe-labelled cysteine peptide fold change” value came to 0.0247.
Regarding “BRCA1_P38398_226_AACEFSETDVTNTEHHQPSNNDLNTTEK (UniProt P38398)”, the “probe-labelled cysteine peptide fold change” value is, setting by setting: (10 µM) 0.105; (50 µM) -0.274.
On to “CAND1_Q86VP6_356_CLDAVVSTR (UniProt Q86VP6)”, for which the “probe-labelled cysteine peptide fold change” value was determined as 0.0296 (10 µM) and 0.129 (50 µM).
For the target “BRF1_Q92994_229_RPSGLCGAALLVAAR (UniProt Q92994)”, the “probe-labelled cysteine peptide fold change” value (10 µM) is -0.117 and the “probe-labelled cysteine peptide fold change” value (50 µM) was 0.0817.
As to “BRWD1_Q9NSI6_1166_SRDEECDR (UniProt Q9NSI6)”, the “probe-labelled cysteine peptide fold change” value was determined as 0.0938 (10 µM) and 0.0153 (50 µM).
For “BRWD3_Q6RI45_202_IFTGSDDCLVK (UniProt Q6RI45)”, in that order: 0.176 and 0.155.
Take “BRAP_Q7Z569_110_ECINAAPDSPSK (UniProt Q7Z569)”: the “probe-labelled cysteine peptide fold change” value is -0.16 (10 µM) and -0.0832 (50 µM).
For the target “C16orf62_Q7Z3J2_454_ECDESGFPK (UniProt Q7Z3J2)”, the “probe-labelled cysteine peptide fold change” value is -0.178 (10 µM) and -0.0456 (50 µM).
With “BRWD3_Q6RI45_1147_DEECER (UniProt Q6RI45)”, the “probe-labelled cysteine peptide fold change” value runs as follows: (10 µM) 0.0184; (50 µM) 0.127.
For “CALR_P27797_137_LFPNSLDQTDMHGDSEYNIMFGPDICGPGTKK (UniProt P27797)”, in that order: -0.241 and -0.321.
As for “CAD_P27708_252_VLSEPNPRPVFGICLGHQLLALAIGAK (UniProt P27708)”, the “probe-labelled cysteine peptide fold change” value reads like this: (10 µM) -0.501; (50 µM) -0.364.
In the case of “C3orf38_Q5JPI3-2_12_SGLSFSEMEGCR (UniProt Q5JPI3)”, the “probe-labelled cysteine peptide fold change” value is, setting by setting: (10 µM) -0.00138; (50 µM) 0.302.
With “CAMLG_P49069_123_GTQLGDKLDSFIKPPECSSDVNLELR (UniProt P49069)”, the “probe-labelled cysteine peptide fold change” value (10 µM) was -0.134 and the “probe-labelled cysteine peptide fold change” value (50 µM) is -0.228.
“CAMK2G_Q13555_7_ATTATCTR (UniProt Q13555)”: the “probe-labelled cysteine peptide fold change” value is, setting by setting: (10 µM) 0.042; (50 µM) -0.225.
Turning to “BUD31_P41223_137+139_IIECTHCGCR (UniProt P41223)”, the “probe-labelled cysteine peptide fold change” value (10 µM) turned out to be 0.0997 and the “probe-labelled cysteine peptide fold change” value (50 µM) was found to be 0.0487.
The like results for “BRD7_Q9NPI1_574_LSTRPPPNMICLLGPSYR (UniProt Q9NPI1)” were, in that order, -0.0869 and -0.299.
For “BRIX1_Q8TDN6_52_RHATAEEVEEEERDRIPGPVCK (UniProt Q8TDN6)”, in that order: 0.0287 and -0.13.
In the case of “C11orf54_Q9H0W9_187_TGPLNFVTCMR (UniProt Q9H0W9)”, the “probe-labelled cysteine peptide fold change” value by setting is: (10 µM) -0.102; (50 µM) -0.0753.
In the case of “BRD9_Q9H8M2_288_EVISCMFEPEGNACSLTDSTAEEHVLALVEHAADEAR (UniProt Q9H8M2)”, the “probe-labelled cysteine peptide fold change” value reads like this: (10 µM) -0.288; (50 µM) -0.119.
For “BRD2_P25440_353_HCNGILK (UniProt P25440)”, the “probe-labelled cysteine peptide fold change” value is, setting by setting: (10 µM) -0.0579; (50 µM) 0.0332.
As to “BTAF1_O14981_1290_LHGILCDDMGLGK (UniProt O14981)”, the “probe-labelled cysteine peptide fold change” value is, setting by setting: (10 µM) -0.0376; (50 µM) -0.104.
